{
  "sequences": {"note": "Amino acid sequences for entries named in this document (tags omitted). A change or cut given only in a name is not applied to a line headed by its entry.", "UniProt Q9NR31": "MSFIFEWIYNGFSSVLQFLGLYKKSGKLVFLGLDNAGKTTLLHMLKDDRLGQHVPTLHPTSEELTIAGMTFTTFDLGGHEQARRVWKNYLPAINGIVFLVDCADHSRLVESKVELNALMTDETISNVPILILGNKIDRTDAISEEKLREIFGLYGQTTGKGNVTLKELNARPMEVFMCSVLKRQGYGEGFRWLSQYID", "UniProt Q96EP0": "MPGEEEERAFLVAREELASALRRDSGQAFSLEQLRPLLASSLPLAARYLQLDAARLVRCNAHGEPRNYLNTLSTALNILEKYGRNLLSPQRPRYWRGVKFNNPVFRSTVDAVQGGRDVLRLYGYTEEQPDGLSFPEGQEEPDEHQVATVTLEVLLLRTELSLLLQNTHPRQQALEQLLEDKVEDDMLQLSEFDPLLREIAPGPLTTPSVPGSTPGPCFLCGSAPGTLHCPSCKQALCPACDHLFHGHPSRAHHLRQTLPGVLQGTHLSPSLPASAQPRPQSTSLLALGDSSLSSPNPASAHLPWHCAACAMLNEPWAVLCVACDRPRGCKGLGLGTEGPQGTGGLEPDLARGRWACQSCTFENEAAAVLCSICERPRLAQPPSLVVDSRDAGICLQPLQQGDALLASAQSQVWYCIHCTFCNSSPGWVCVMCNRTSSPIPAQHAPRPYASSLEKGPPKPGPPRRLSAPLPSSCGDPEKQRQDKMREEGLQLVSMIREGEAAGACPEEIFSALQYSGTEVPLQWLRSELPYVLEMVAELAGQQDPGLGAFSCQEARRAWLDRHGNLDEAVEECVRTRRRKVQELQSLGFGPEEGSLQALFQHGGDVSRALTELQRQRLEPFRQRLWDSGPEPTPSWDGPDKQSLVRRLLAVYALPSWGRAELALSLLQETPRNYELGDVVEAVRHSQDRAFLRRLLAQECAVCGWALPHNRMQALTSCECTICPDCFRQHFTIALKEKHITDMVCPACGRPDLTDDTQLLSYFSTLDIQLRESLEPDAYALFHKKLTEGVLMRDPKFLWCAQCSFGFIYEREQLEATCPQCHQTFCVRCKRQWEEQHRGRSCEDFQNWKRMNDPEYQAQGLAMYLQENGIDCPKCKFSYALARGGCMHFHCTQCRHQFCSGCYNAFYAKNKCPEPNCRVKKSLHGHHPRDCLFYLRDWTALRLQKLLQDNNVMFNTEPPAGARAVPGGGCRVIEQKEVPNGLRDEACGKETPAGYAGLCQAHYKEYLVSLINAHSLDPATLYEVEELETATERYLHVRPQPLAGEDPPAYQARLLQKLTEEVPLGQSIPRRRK", "UniProt Q9NQG5": "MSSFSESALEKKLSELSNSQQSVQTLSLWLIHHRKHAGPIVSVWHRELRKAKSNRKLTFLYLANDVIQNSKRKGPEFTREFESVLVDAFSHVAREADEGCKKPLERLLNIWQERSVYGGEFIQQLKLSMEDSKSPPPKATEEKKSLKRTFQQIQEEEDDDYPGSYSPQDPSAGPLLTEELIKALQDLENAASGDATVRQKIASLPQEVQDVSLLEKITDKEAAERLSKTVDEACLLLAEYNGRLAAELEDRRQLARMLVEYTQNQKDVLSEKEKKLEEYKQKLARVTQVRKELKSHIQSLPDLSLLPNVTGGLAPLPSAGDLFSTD", "UniProt Q8WVM8, whole entry, looked up": "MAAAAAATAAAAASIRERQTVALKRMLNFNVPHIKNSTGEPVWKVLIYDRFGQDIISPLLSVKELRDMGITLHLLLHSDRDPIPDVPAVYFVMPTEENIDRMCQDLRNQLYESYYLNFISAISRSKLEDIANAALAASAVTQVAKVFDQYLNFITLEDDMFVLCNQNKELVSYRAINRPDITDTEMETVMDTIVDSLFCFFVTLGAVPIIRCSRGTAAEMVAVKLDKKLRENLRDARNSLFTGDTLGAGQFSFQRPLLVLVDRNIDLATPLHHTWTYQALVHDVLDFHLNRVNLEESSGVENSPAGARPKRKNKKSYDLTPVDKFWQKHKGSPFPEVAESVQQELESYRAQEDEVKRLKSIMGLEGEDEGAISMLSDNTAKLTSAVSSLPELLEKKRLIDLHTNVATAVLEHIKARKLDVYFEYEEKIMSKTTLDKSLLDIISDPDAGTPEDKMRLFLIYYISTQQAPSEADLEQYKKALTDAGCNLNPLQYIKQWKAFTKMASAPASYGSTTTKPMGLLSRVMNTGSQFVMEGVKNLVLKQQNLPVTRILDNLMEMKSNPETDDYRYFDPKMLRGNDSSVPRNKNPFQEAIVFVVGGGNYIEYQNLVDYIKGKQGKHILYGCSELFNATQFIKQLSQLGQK", "UniProt Q06587": "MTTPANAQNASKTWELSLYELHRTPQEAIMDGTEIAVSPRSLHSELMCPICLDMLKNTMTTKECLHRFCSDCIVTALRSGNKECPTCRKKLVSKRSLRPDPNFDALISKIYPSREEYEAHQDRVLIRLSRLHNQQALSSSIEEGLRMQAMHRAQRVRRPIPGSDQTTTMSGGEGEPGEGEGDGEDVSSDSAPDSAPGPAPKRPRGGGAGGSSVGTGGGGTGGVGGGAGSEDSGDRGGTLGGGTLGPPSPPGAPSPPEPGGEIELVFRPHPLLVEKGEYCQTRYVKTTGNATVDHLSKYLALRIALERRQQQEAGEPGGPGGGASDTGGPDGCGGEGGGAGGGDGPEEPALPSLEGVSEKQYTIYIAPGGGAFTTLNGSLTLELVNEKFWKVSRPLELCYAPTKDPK", "UniProt P35251": "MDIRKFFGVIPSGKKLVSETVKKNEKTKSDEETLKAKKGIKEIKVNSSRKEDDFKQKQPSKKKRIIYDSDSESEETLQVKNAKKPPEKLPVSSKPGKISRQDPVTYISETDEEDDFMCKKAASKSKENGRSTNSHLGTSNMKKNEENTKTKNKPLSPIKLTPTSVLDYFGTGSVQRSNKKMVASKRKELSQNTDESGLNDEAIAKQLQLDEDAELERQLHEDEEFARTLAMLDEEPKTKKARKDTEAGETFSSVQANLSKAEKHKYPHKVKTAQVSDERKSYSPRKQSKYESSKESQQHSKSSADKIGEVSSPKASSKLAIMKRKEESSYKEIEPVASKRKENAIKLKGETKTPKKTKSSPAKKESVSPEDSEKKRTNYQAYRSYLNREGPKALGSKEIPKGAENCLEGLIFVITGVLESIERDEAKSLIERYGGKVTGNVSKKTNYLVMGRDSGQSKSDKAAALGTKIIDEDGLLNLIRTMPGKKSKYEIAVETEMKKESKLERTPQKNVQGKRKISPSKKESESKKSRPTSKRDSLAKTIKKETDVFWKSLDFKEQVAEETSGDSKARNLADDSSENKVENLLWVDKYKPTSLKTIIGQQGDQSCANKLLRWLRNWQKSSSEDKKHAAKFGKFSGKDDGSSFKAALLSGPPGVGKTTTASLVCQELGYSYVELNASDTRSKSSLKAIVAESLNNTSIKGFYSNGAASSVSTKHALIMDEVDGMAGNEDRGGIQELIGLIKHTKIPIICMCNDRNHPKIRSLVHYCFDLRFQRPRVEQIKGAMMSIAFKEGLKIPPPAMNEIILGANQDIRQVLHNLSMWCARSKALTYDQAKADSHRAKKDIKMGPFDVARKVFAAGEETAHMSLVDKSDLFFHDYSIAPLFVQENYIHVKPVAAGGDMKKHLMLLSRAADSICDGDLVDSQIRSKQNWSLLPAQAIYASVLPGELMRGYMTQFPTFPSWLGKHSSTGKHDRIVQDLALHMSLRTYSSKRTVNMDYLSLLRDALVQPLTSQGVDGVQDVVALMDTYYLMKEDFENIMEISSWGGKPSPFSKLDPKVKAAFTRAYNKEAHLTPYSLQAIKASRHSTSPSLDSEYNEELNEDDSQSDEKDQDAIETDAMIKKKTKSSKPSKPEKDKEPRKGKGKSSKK", "UniProt Q04206, whole entry": "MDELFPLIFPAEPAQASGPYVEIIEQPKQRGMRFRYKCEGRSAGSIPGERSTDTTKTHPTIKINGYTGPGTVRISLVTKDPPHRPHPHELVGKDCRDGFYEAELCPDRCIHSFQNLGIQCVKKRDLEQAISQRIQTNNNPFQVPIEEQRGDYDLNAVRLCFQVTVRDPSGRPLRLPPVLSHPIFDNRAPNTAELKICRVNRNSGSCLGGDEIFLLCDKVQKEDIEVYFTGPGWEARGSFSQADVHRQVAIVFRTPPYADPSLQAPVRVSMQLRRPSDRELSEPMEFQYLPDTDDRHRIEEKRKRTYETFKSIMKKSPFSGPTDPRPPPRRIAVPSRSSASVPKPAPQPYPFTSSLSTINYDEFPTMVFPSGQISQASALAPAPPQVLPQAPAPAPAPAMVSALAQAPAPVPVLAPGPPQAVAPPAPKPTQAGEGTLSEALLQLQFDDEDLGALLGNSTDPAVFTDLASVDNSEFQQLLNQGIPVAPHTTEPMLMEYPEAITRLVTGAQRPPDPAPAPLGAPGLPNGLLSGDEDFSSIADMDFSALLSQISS", "UniProt Q8NC51": "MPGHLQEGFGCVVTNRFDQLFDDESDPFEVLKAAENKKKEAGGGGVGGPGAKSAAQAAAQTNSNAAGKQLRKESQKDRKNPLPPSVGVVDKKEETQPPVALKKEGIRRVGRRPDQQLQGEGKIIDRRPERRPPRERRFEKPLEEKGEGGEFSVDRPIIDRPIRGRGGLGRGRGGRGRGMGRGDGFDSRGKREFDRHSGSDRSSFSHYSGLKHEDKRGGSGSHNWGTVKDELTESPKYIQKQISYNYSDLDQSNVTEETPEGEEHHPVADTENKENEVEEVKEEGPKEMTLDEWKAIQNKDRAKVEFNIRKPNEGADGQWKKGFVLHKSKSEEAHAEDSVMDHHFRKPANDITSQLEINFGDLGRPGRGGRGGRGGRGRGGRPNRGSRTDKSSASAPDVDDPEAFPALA"},
  "source": "the supplement of paper PMC7666118",
  "note": "This is one part of the list.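 How the source made its calls: active = dose-dependent thermal stabilisation significant by F-test of dose-response against flat model at 10% FDR; inactive = not significant.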",
  "data": [
    {"compound": "Nc1nc2c(ncn2[C@@H]2O[C@H](COP(=O)(O)OP(=O)(O)OP(=O)(O)O)[C@@H](O)[C@H]2O)c(=O)[nH]1", "assay": "dose-dependent thermal stabilisation call (2D-TPP, DLPTP, 10% FDR) (binary (1 = stabilised)); higher = stabilised by the compound", "settings": "system: Jurkat gel-filtered lysate; concentration range 1-500 µM", "values": [
      {"target": "SAR1A (UniProt Q9NR31)", "dose-dependent thermal stabilisation call": "active: 1"},
      {"target": "RNF31 (UniProt Q96EP0)", "dose-dependent thermal stabilisation call": "inactive: 0"},
      {"target": "RPRD1B (UniProt Q9NQG5)", "dose-dependent thermal stabilisation call": "inactive: 0"},
      {"target": "SCFD1 (UniProt Q8WVM8)", "dose-dependent thermal stabilisation call": "active: 1"},
      {"target": "RING1 (UniProt Q06587)", "dose-dependent thermal stabilisation call": "inactive: 0"},
      {"target": "RFC1 (UniProt P35251)", "dose-dependent thermal stabilisation call": "inactive: 0"},
      {"target": "RELA (UniProt Q04206)", "dose-dependent thermal stabilisation call": "inactive: 0"},
      {"target": "SERBP1 (UniProt Q8NC51)", "dose-dependent thermal stabilisation call": "inactive: 0"}
    ]}
  ]
}
